Among the data in PubChem BioAssay AID493014 (National Center for Advancing Translational Sciences (NCATS), 2011) are AC50 values, retold here.

The structures appear in SMILES notation. The list shows a part of the results. The main result of the screen is listed elsewhere. These columns were measured beside it and carry no call. The list favours compounds with an active or inconclusive main result. The note in brackets gives the kind of curve behind each potency; many fits are weak.

The nature of this assay: qHTS Assay to Find Inhibitors of Chronic Active B-Cell Receptor Signaling. The following applies: ABC-DLBCL IkBa-CBG/CBR reporter, luminescence ratio (green luciferase fused to IkBa over red control in TMD8 lymphoma cells), 4 h. Put shortly:
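Compounds up to 46 uM were incubated four hours with TMD8 cells whose green CBG68 luciferase is fused to IkappaBalpha; red CBR luminescence normalised the signal, and concentration-effect curves were fitted to fusion, red and ratio data.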

The mark [1] stands for this setting: measured here: CBR red luminescence, cell number.
Where [2] appears, read: measured here: IkBa-CBG green luminescence.

On to `CC(=O)Nc1sc(N/N=C/c2ccccc2F)nc1-c1ccc(C)cc1`, for which, under setting [1], the half-maximal activity concentration (AC50) (usually the concentration giving half of the maximal activity seen) was 12.6 µM [falling, single point].
On to `Cc1ccc(N2CCN(S(=O)(=O)c3ccc4c(c3)n(C)c(=O)c(=O)n4C)CC2C)cc1` (stereo not given), for which the concentration at half-maximal activity (AC50) under setting [1] is 0.82 µM [rising, full curve, poor fit].
Turning to `Cc1ccc(C)c(OCC(=O)O/N=C(\N)c2cccc([N+](=O)[O-])c2)c1`, the AC50 under setting [1] is 1.26 µM [rising, partial curve, poor fit].
As for `O=c1[nH]c2cc3c(cc2cc1CN(CC1CCCO1)S(=O)(=O)c1ccc(Cl)cc1)OCCO3` (stereo not given), under setting [1], the concentration at half-maximal activity (AC50) was 23.1 µM [rising, partial curve, poor fit].
On to `CCOC(=O)c1c(NC(=O)c2ccccc2Cl)sc2c1CCc1ccccc1-2`, for which the AC50 under setting [1] is 20.6 µM [falling, partial curve, poor fit].
Regarding `Cc1[nH]c2ccccc2c1C(=O)CSc1ccc(Cl)cc1`, the AC50 under setting [1] is 0.708 µM [rising, full curve, poor fit].
On to `O=C(Nc1ccccc1)Nc1ccccc1C(=O)NCCCN1CCOCC1`, for which, under setting [1], the AC50 was 4.47 µM [falling, partial curve].
Regarding `OC1CCCCC1Sc1nc2ccccc2s1` (stereo not given), under setting [1], the AC50 is 2.82 µM [rising, full curve, poor fit].
Same read-out and setting: then `Cc1cc(C)c(NC(=O)c2cc(S(=O)(=O)N3CCCC3)cn2C)c(C)c1`, with 35.5 µM [falling, single point]; and `COc1ccc(C2Nc3ccccc3C(=O)N2c2ccc(C)cc2)cc1Cn1nc(C)c([N+](=O)[O-])c1C` (stereo not given), with 12.6 µM [rising, partial curve].
In the case of `COc1ccc(CNC(=O)c2cc(-c3cc(C)ccc3O)n[nH]2)cc1`, under setting [1], the AC50 was 12.6 µM [falling, partial curve, poor fit].
On to `Cc1nn2c(NCCOCCO)c3c(nc2c1-c1ccccc1)CCC3`, for which the AC50 under setting [1] was 31.6 µM [falling, single point].
For `COc1ccc(C2CC(c3ccccc3)=NN2C(=O)COC(=O)CNC(=O)c2ccccc2)cc1` (stereo not given), under setting [1], the AC50 was 13 µM [rising, partial curve, poor fit].
Consider `O=C(NCc1ccccc1)c1n[nH]nc1-c1ccccc1O`, for which the half-maximal activity concentration (AC50) under setting [1] is 4.47 µM [falling, full curve].
For `Cc1cccc(N=C2NN=C(c3c(C)[nH]c4ccccc34)CS2)c1`, under setting [2], the AC50 was 23.1 µM [rising, single point].
Turning to `Cn1c(N)c(S(=O)(=O)N2CCN(c3ccccc3F)CC2)c(=O)n(C)c1=O`, the AC50 under setting [1] was 35.5 µM [rising, single point].
Consider `COc1ccc(/C=C2/SC(=S)N(CCCC(=O)Nc3ccccc3C(=O)O)C2=O)cc1`, for which the AC50 under setting [1] was 0.316 µM [falling, full curve].
Consider `CN1CCN(Cc2c(O)ccc3occ(C(=O)c4ccccc4)c23)CC1`, for which the AC50 under setting [1] is 11.6 µM [falling, partial curve].
Still for that read-out and setting: then `CCc1ccc(CNC(=O)c2cc3c(C)nc4ccccc4c3o2)cc1`, with 29.1 µM [falling, single point].
For `CNc1ccccc1-n1ccc(-c2ccccc2)n1`, the AC50 under setting [1] is 3.66 µM [rising, partial curve, poor fit].
Regarding `CCn1c(SCc2ccc(OC)cc2)nnc1-c1ccncc1`, the AC50 under setting [1] was 23.1 µM [falling, partial curve, poor fit].
For the compound `Cc1nc2ncnn2c(C)c1CCC(=O)N1CCc2ccccc21`, the AC50 under setting [1] was 0.0291 µM [rising, full curve, poor fit].
Consider `COc1ccccc1NC(=O)C(=O)NCC(c1ccco1)N1CCc2ccccc21` (stereo not given), for which, under setting [1], the half-maximal activity concentration (AC50) was 9.2 µM [falling, partial curve, poor fit].
Take `CCOc1ccc(NC(=O)c2cccc(OC(=S)N3CCOCC3)c2)cc1`: the AC50 under setting [1] is 7.08 µM [falling, partial curve].
`CCCn1c(SCC(=O)NC2CCCCC2)nnc1C1CC1`: the AC50 under setting [1] was 0.1 µM [rising, full curve, poor fit].
On to `CC(=O)Nc1cccc(C(=O)/C=C/c2ccc(Br)cc2)c1`, for which, under setting [1], the half-maximal activity concentration (AC50) is 16.4 µM [falling, partial curve].
On the same count and under the same terms, then `O=C(COC(=O)c1ccc(N2CCCC2=O)cc1)NCc1ccco1`, with 0.0891 µM [falling, full curve, poor fit]; and `COC(=O)c1ccc(NC(=O)c2cnc3scc(C)n3c2=O)cc1`, with 3.16 µM [falling, partial curve, poor fit].
Consider `COc1ccc(S(=O)(=O)NCC(c2ccco2)S(=O)(=O)c2cccs2)cc1OC` (stereo not given), for which the AC50 under setting [1] was 28.2 µM [falling, single point].
As to `CC1Cc2ccccc2N1c1ncnc(N)c1[N+](=O)[O-]` (stereo not given), the AC50 was 35.5 µM [falling, single point] under setting [1] and 15.8 µM [rising, single point] under setting [2].
For the compound `C#CCOCCOCCOCCNc1nc(N2CCN(C(=O)CCCCCCCCCCNC(=O)[C@H](CCCN=C(N)N)n3cc(C[C@@H](C)CC)nn3)CC2)nc(N2CCN(C(=O)CCCCCCCCCCNC(=O)[C@@H]([C@H](C)CC)n3cc(CCCCCN)nn3)CC2)n1`, the AC50 under setting [1] was 7.31 µM [falling, partial curve, poor fit].
Consider `COc1ccc(N(C(=O)c2ccccc2OC)C2C=CS(=O)(=O)C2)c(OC)c1` (stereo not given), for which the AC50 under setting [1] was 6.51 µM [rising, single point].
With `CN(C)c1cc(-c2ccc(F)cc2)oc(=O)c1Cl`, under setting [1], the AC50 was 0.794 µM [rising, full curve, poor fit].
Consider `CCOC(=O)c1ccc(COC(=O)CNS(=O)(=O)c2ccccc2)cc1`, for which the AC50 under setting [1] is 6.31 µM [falling, single point].
For the compound `CCOC(=O)CN1C(=O)S/C(=C/c2cccc([N+](=O)[O-])c2O)C1=O`, the AC50 under setting [1] was 1.58 µM [rising, full curve].
`Cc1ccc(N/N=C/c2cccnc2)cc1`: the AC50 under setting [1] was 20.6 µM [rising, partial curve].
Still for that read-out and setting: with `COc1ccc(N(CC(=O)N2CCC(Cc3ccccc3)CC2)S(C)(=O)=O)cc1` the figure was 0.708 µM [falling, partial curve, poor fit].
As for `Clc1ccc(CSc2nnc(Cn3cnc4ccccc43)o2)cc1`, the concentration at half-maximal activity (AC50) under setting [1] is 18.4 µM [falling, single point].
The same measure, in the same setting: with `COC(=O)/C(C#N)=C/c1ccc(OC(=O)c2ccccn2)cc1` the figure was 9.2 µM [falling, partial curve].
